Data as given in PubChem BioAssay AID686938 (Drosophila RNAi Screening Center, 2013).
Screen: 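Knock-downs reducing store-operated calcium influx in Drosophila cells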 (primary screen). Cells: Drosophila S2R+ cells. Reagents: long dsRNA against Drosophila genes, about 0.25 µg dsRNA per well, roughly 10,000 cells. Timing: 5 days of knock-down before the calcium assay. Challenge: thapsigargin (SERCA pump blocker) to empty calcium stores; entry signal taken 4 min after adding it. Read-out: 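Duplicate raw fluo-4 intensities per well from a plate reader, at rest and four minutes after thapsigargin emptied calcium stores; entry-to-rest ratio filled for only some wells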. Direction: calcium entry signal: higher = stronger calcium signal after store depletion; resting calcium signal: higher = higher resting calcium signal. Units: calcium entry signal in fluorescence units; resting calcium signal in fluorescence units. Call rule: 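Hit if the duplicate-averaged plate z-score for entry over resting signal is under −3; wells with weak total dye signal (Fmax z < −2) or more than 5 off-targets removed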. Meaning of the calls: active = strongly reduced calcium entry; inactive = no strong reduction.
The deposit covers about 23,000 reagents; shown is a random part of those with a known target gene and a result. In the full data, 75 (0.33%) got an active call. 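Raw plate signals without normalisation; calls rest on plate z-scores that were not deposited; ratio present for only 364 wells.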 Unmarked entries are inactive. A plus sign joins genes that one reagent is predicted to hit. The record does not give: the dose of the treatment.

Cyp6a8
- calcium entry signal, replicate 1: 3.97e7
- calcium entry signal, replicate 2: 3.86e7
- resting calcium signal, replicate 1: 1.94e7
- resting calcium signal, replicate 2: 1.82e7

Rab23
- calcium entry signal, replicate 1: 4.48e7
- calcium entry signal, replicate 2: 3.88e7
- resting calcium signal, replicate 1: 2.18e7
- resting calcium signal, replicate 2: 1.93e7

Tim9a
- calcium entry signal, replicate 1: 3.78e7
- calcium entry signal, replicate 2: 4.92e7
- resting calcium signal, replicate 1: 1.81e7
- resting calcium signal, replicate 2: 2.24e7

aft
- calcium entry signal, replicate 1: 3.33e7
- calcium entry signal, replicate 2: 3.69e7
- resting calcium signal, replicate 1: 1.57e7
- resting calcium signal, replicate 2: 1.68e7

Drsl1
- calcium entry signal, replicate 1: 3.95e7
- calcium entry signal, replicate 2: 2.74e7
- resting calcium signal, replicate 1: 2.46e7
- resting calcium signal, replicate 2: 1.44e7

sac
- calcium entry signal, replicate 1: 3.30e7
- calcium entry signal, replicate 2: 5.58e7
- resting calcium signal, replicate 1: 1.61e7
- resting calcium signal, replicate 2: 2.34e7

CG31077
- calcium entry signal, replicate 1: 3.02e7
- calcium entry signal, replicate 2: 2.16e7
- resting calcium signal, replicate 1: 1.33e7
- resting calcium signal, replicate 2: 1.13e7

gdrd
- calcium entry signal, replicate 1: 3.86e7
- calcium entry signal, replicate 2: 4.80e7
- resting calcium signal, replicate 1: 1.75e7
- resting calcium signal, replicate 2: 1.90e7

Psf2
- calcium entry signal, replicate 1: 1.87e7
- calcium entry signal, replicate 2: 1.99e7
- resting calcium signal, replicate 1: 1.07e7
- resting calcium signal, replicate 2: 9.69e6

Rap2l
- calcium entry signal, replicate 1: 3.55e7
- calcium entry signal, replicate 2: 4.56e7
- resting calcium signal, replicate 1: 2.01e7
- resting calcium signal, replicate 2: 1.93e7

Usp12-46
- calcium entry signal, replicate 1: 5.11e7
- calcium entry signal, replicate 2: 4.63e7
- resting calcium signal, replicate 1: 2.16e7
- resting calcium signal, replicate 2: 1.84e7

MtnD
- calcium entry signal, replicate 1: 4.06e7
- calcium entry signal, replicate 2: 3.31e7
- resting calcium signal, replicate 1: 2.29e7
- resting calcium signal, replicate 2: 1.57e7

An excerpt from above, limited to “resting calcium signal, replicate 1”:
aft = 1.57e7
Drsl1 = 2.46e7

Next entries:
CG34265
- calcium entry signal, replicate 1: 2.28e7
- calcium entry signal, replicate 2: 3.09e7
- resting calcium signal, replicate 1: 1.11e7
- resting calcium signal, replicate 2: 1.31e7

CG4892
- calcium entry signal, replicate 1: 4.89e7
- calcium entry signal, replicate 2: 3.90e7
- resting calcium signal, replicate 1: 2.20e7
- resting calcium signal, replicate 2: 1.72e7

chrb
- calcium entry signal, replicate 1: 4.36e7
- calcium entry signal, replicate 2: 4.34e7
- resting calcium signal, replicate 1: 2.74e7
- resting calcium signal, replicate 2: 2.01e7

Rab4 + CG42239
- calcium entry signal, replicate 1: 3.76e7
- calcium entry signal, replicate 2: 4.43e7
- resting calcium signal, replicate 1: 1.60e7
- resting calcium signal, replicate 2: 1.92e7

CG15043
- calcium entry signal, replicate 1: 3.59e7
- calcium entry signal, replicate 2: 3.54e7
- resting calcium signal, replicate 1: 2.04e7
- resting calcium signal, replicate 2: 1.78e7

CG1774
- calcium entry signal, replicate 1: 3.69e7
- calcium entry signal, replicate 2: 3.84e7
- resting calcium signal, replicate 1: 1.61e7
- resting calcium signal, replicate 2: 1.90e7

CG6144
- calcium entry signal, replicate 1: 5.32e7
- calcium entry signal, replicate 2: 2.30e7
- resting calcium signal, replicate 1: 2.39e7
- resting calcium signal, replicate 2: 1.17e7

FASN3
- calcium entry signal, replicate 1: 3.94e7
- calcium entry signal, replicate 2: 3.81e7
- resting calcium signal, replicate 1: 2.19e7
- resting calcium signal, replicate 2: 1.77e7

wde
- calcium entry signal, replicate 1: 5.40e7
- calcium entry signal, replicate 2: 4.08e7
- resting calcium signal, replicate 1: 2.24e7
- resting calcium signal, replicate 2: 1.87e7
